According to publication PMC9135631 (2022):
Results are given in words; binding and its absence hold for the method and conditions named. Binding can be weak; no strength is given.

Tests used:
Assay in all cases: cell aggregation assay; two HEK293 populations (receptor + EGFP; ligand + DsRed) mixed under gentle agitation at room temperature in DMEM, 10% FBS, 50 mM Hepes-NaOH pH 7.4, 10 mM CaCl2, 10 mM MgCl2; aggregates imaged by epifluorescence up to 180 min; aggregation index
[1] = target: Latrophilin-3 ADHD-related variant A247S (Lphn3^A247S) (human)
[2] = target: Latrophilin-3 ADHD-related variant D615N (Lphn3^D615N) (human)
[3] = target: Latrophilin-3 ADHD-related variant R465S (Lphn3^R465S) (human)
[4] = target: Latrophilin-3 ADHD-related variant T783M (Lphn3^T783M) (human)
[5] = target: Latrophilin-3 wild type (Lphn3^HA,Flag) (human)

binding [1]: binds
binding [2]: binds
binding [3]: binds
binding [4]: binds
binding [5]: binds
B1: FLRT3, transmembrane version (ligand, UniProt Q9NZU0 29-649)
chain: KSCPSVCRCDAGFIYCNDRFLTSIPTGIPEDATTLYLQNNQINNAGIPSDLKNLLKVERIYLYHNSLDEFPTNLPKYVKELHLQENNIRTITYDSLSKIPYLEELHLDDNSVSAVSIEEGAFRDSNYLRLLFLSRNHLSTIPWGLPRTIEELRLDDNRISTISSPSLQGLTSLKRLVLDGNLLNNHGLGDKVFFNLVNLTELSLVRNSLTAAPVNLPGTNLRKLYLQDNHINRVPPNAFSYLRQLYRLDMSNNNLSNLPQGIFDDLDNITQLILRNNPWYCGCKMKWVRDWLQSLPVKVNVRGLMCQAPEKVRGMAIKDLNAELFDCKDSGIVSTIQITTAIPNTVYPAQGQWPAPVTKQPDIKNPKLTKDHQTTGSPSRKTITITVKSVTSDTIHISWKLALPMTALRLSWLKLGHSPAFGSITETIVTGERSEYLVTALEPDSPYKVCMVPMETSNLYLFDETPVCIETETAPLRMYNPTTTLNREQEKEPYKNPNLPLAAIIGGAVALVTIALLALVCWYVHRNGSLFSRNCAYSKGRRRKDDYAEAGTKKDNSILEIRETSFQMLPISNEPISKEEFVIHTIFPPNGMNLYKNNHSESSSNRSYRDSGIPDSDHSHS
